# Laboratory results: the supplement of paper PMC8728848
# The list shows a part of the results.
# Columns and labels:
# Test in all cases: glycan array binding signal (z-score within array); higher = stronger binding
# Settings in all cases: glycan notation: IUPAC condensed, linker removed
# [1] = target: Fuc(a1-2)[Gal(a1-3)]Gal(b1-4)GlcNAc(b1-2)Man(a1-3)[Fuc(a1-2)[Gal(a1-3)]Gal(b1-4)GlcNAc(b1-2)Man(a1-6)]Man(b1-4)GlcNAc(b1-4)GlcNAc
# Outline: (§1)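 Columns mapping to the same glycan were averaged after glycan names were converted to IUPAC-condensed notation. The data come from 3228 arrays in the Consortium for Functional Glycomics database, limited to those with an available protein sequence. Binding is reported as a within-array Z-score averaged across arrays of one protein sequence and across linkers.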
# [2] = target: Fuc(a1-2)[Gal(a1-3)]Gal(b1-4)[Fuc(a1-3)]GlcNAc
# Outline: as §1
# [3] = target: Fuc(a1-2)[Gal(a1-4)]Gal(b1-4)GlcNAc
# Outline: as §1
# [4] = target: Fuc(a1-2)[GalNAc(a1-3)]Gal
# Outline: as §1
# [5] = target: Fuc(a1-2)[GalNAc(a1-3)]Gal(b1-3)GlcNAc
# Outline: as §1
# [6] = target: Fuc(a1-2)[GalNAc(a1-3)]Gal(b1-3)GlcNAc(b1-2)Man(a1-3)[Fuc(a1-2)[GalNAc(a1-3)]Gal(b1-3)GlcNAc(b1-2)Man(a1-6)]Man(b1-4)GlcNAc(b1-4)GlcNAc
# Outline: as §1
# [7] = target: Fuc(a1-2)[GalNAc(a1-3)]Gal(b1-4)Glc
# Outline: as §1
# [8] = target: Fuc(a1-2)[GalNAc(a1-3)]Gal(b1-4)GlcNAc
# Outline: as §1
# [9] = target: Fuc(a1-2)[GalNAc(a1-3)]Gal(b1-4)GlcNAc(b1-2)Man(a1-3)[GalNAc(a1-3)[Fuc(a1-2)]Gal(b1-4)GlcNAc(b1-2)Man(a1-6)]Man(b1-4)GlcNAc(b1-4)GlcNAc
# Outline: as §1
# [10] = target: Fuc(a1-2)[GalNAc(a1-3)]Gal(b1-4)GlcNAc(b1-3)Gal(b1-4)GlcNAc
# Outline: as §1
# [11] = target: Fuc(a1-2)[GalNAc(a1-3)]Gal(b1-4)GlcNAc(b1-3)Gal(b1-4)GlcNAc(b1-3)Gal(b1-4)GlcNAc
# Outline: as §1
# [12] = target: Fuc(a1-2)[GalNAc(a1-3)]Gal(b1-4)[Fuc(a1-3)]GlcNAc
# Outline: as §1
# [13] = target: Fuc(a1-2)[GalNAc(a1-4)]Gal(b1-4)GlcNAc
# Outline: as §1
# [14] = target: Fuc(a1-2)[GalNAc(b1-3)]Gal
# Outline: as §1
# [15] = target: Fuc(a1-3)GlcNAc
# Outline: as §1
# [16] = target: Fuc(a1-3)[Gal(b1-4)]Glc6S
# Outline: as §1
# [17] = target: Fuc(a1-3)[Gal(b1-4)]GlcNAc
# Outline: as §1
# [18] = target: Fuc(a1-3)[Gal(b1-4)]GlcNAc(b1-2)Man(a1-3)[Fuc(a1-3)[Gal(b1-4)]GlcNAc(b1-2)Man(a1-6)]Man(b1-4)GlcNAc(b1-4)GlcNAc
# Outline: as §1
# [19] = target: Fuc(a1-3)[Gal(b1-4)]GlcNAc(b1-2)Man(a1-6)[Gal(b1-4)GlcNAc(b1-2)Man(a1-3)]Man(b1-4)GlcNAc(b1-4)GlcNAc
# Outline: as §1
# [20] = target: Fuc(a1-3)[Gal(b1-4)]GlcNAc(b1-3)Gal(b1-3)[Fuc(a1-4)]GlcNAc
# Outline: as §1
# [21] = target: Fuc(a1-3)[Gal(b1-4)]GlcNAc(b1-4)Gal(b1-4)[Fuc(a1-3)]GlcNAc
# Outline: as §1
# [22] = target: Fuc(a1-3)[Gal(b1-4)]GlcNAc(b1-4)Gal(b1-4)[Fuc(a1-3)]GlcNAc(b1-4)Gal(b1-4)[Fuc(a1-3)]GlcNAc
# Outline: as §1
# [23] = target: Fuc(a1-3)[Gal(b1-4)]GlcNAc6S
# Outline: as §1
# [24] = target: Fuc(a1-3)[Gal3S(b1-4)]Glc6S
# Outline: as §1
# [25] = target: Fuc(a1-3)[Gal3S(b1-4)]GlcNAc
# Outline: as §1
# [26] = target: Fuc(a1-3)[Gal3S(b1-4)]GlcNAc6S
# Outline: as §1
# [27] = target: Fuc(a1-3)[GalNAc(b1-4)]GlcNAc
# Outline: as §1
# [28] = target: Fuc(a1-3)[Neu5Ac(a2-3)]Gal(b1-4)GlcNAc(b1-3)GalNAc
# Outline: as §1
# [29] = target: Fuc(a1-4)GlcNAc
# Outline: as §1
# [30] = target: Fuc(b1-3)GlcNAc
# Outline: as §1
binder,measurement,setting,value
"4F2hc (Homo sapiens), P08195 (protein) WWHTGALYRIGDLQAFQGHGAGNLAGLKGRLDYLSSLKVKGLVLGPIHKNQKDDVAQTDLLQIDPNFGSKEDFDSLLQSAKKKSIRVILDLTPNYRGENSWFSTQVDTVATKVKDALEFWLQAGVDGFQVRDIENLKDASSFLAEWQNITKGFSEDRLLIAGTNSSDLQQILSLLESNKDLLLTSSYLSDSGSTGEHTKSLVTQYLNATGNRWCSWSLSQARLLTSFLPAQLLRLYQLMLFTLPGTPVFSYGDEIGLDAAALPGQPMEAPVMLWDESSFPDIPGAVSANMTVKGQSEDPGSLLSLFRRLSDQRSKERSLLHGDFHAFSAGPGLFSYIRHWDQNERFLVVLNFGDVGLSAGLQASDLPASASLPAKADLLLSTQPGREEGSPLELERLKLEPHEGLLLRFPYAA",glycan array binding signal (z-score),[1],-0.107
same,glycan array binding signal (z-score),[2],1.16
same,glycan array binding signal (z-score),[3],2.24
same,glycan array binding signal (z-score),[4],0.845
same,glycan array binding signal (z-score),[5],-0.297
same,glycan array binding signal (z-score),[6],-0.757
same,glycan array binding signal (z-score),[7],6.38
same,glycan array binding signal (z-score),[8],-0.63
same,glycan array binding signal (z-score),[9],-0.199
same,glycan array binding signal (z-score),[10],1.59
same,glycan array binding signal (z-score),[11],1.26
same,glycan array binding signal (z-score),[12],0.679
same,glycan array binding signal (z-score),[13],-0.82
same,glycan array binding signal (z-score),[14],-0.198
same,glycan array binding signal (z-score),[15],-0.586
same,glycan array binding signal (z-score),[16],1.75
same,glycan array binding signal (z-score),[17],0.304
same,glycan array binding signal (z-score),[18],-0.966
same,glycan array binding signal (z-score),[19],-0.963
same,glycan array binding signal (z-score),[20],1.58
same,glycan array binding signal (z-score),[21],0.937
same,glycan array binding signal (z-score),[22],-1.11
same,glycan array binding signal (z-score),[23],2.68
same,glycan array binding signal (z-score),[24],-1.06
same,glycan array binding signal (z-score),[25],0.651
same,glycan array binding signal (z-score),[26],1.29
same,glycan array binding signal (z-score),[27],-0.392
same,glycan array binding signal (z-score),[28],-0.098
same,glycan array binding signal (z-score),[29],-0.807
same,glycan array binding signal (z-score),[30],-0.415

# Laid out differently: results already given.
binder	measurement	setting	value
4F2hc (Homo sapiens), P08195 (protein) WWHTGALYRIGDLQAFQGHGAGNLAGLKGRLDYLSSLKVKGLVLGPIHKNQKDDVAQTDLLQIDPNFGSKEDFDSLLQSAKKKSIRVILDLTPNYRGENSWFSTQVDTVATKVKDALEFWLQAGVDGFQVRDIENLKDASSFLAEWQNITKGFSEDRLLIAGTNSSDLQQILSLLESNKDLLLTSSYLSDSGSTGEHTKSLVTQYLNATGNRWCSWSLSQARLLTSFLPAQLLRLYQLMLFTLPGTPVFSYGDEIGLDAAALPGQPMEAPVMLWDESSFPDIPGAVSANMTVKGQSEDPGSLLSLFRRLSDQRSKERSLLHGDFHAFSAGPGLFSYIRHWDQNERFLVVLNFGDVGLSAGLQASDLPASASLPAKADLLLSTQPGREEGSPLELERLKLEPHEGLLLRFPYAA	glycan array binding signal (z-score)	[4]	0.845
same	glycan array binding signal (z-score)	[5]	-0.297
same	glycan array binding signal (z-score)	[6]	-0.757
same	glycan array binding signal (z-score)	[7]	6.38
same	glycan array binding signal (z-score)	[8]	-0.63
same	glycan array binding signal (z-score)	[9]	-0.199
same	glycan array binding signal (z-score)	[10]	1.59
same	glycan array binding signal (z-score)	[11]	1.26
